The text below walks through data of patent US20110297235A1, “USE OF TRIARYLAMINE DERIVATIVES AS HOLE-CONDUCTING MATERIALS IN ORGANIC SOLAR CELLS AND ORGANIC SOLAR CELLS CONTAINING SAID TRIARYLAMINE DERIVATIVES” (BASF SE, priority 2009, published 2011).

The nature of this series: Test in solid dye solar cells (DSC): current/voltage characteristic under solar simulator.
Setting [1] is: 0.1 sun, dye D102, TiO2 approx. 2.2 μm.
Where [2] appears, read: 1 sun, dye D102, TiO2 approx. 2.2 μm.
The mark [3] stands for this setting: 0.1 sun, dye D102, TiO2 approx. 1.8 μm.
Setting [4] is: 1 sun, dye D102, TiO2 approx. 1.8 μm.
[5] abbreviates: 0.1 sun, dye D205, TiO2 approx. 1.8 μm.
Setting [6] is: 0.1 sun, dye perylene 1, TiO2 approx. 1.8 μm.
Where [7] appears, read: 0.1 sun, dye perylene 2, TiO2 approx. 1.8 μm.
Where [8] appears, read: 0.1 sun, dye perylene 3, TiO2 approx. 3.1 μm.
Where [9] appears, read: 1 sun, dye D205, TiO2 approx. 1.8 μm.
The mark [10] stands for this setting: 1 sun, dye perylene 1, TiO2 approx. 1.8 μm.
Where [11] appears, read: 1 sun, dye perylene 2, TiO2 approx. 1.8 μm.
Where [12] appears, read: 1 sun, dye perylene 3, TiO2 approx. 3.1 μm.

Consider `COc1ccc(N(c2ccc(OC)cc2)c2ccc(-c3ccc(N(c4ccc(OC)cc4)c4ccc5c(c4)c4cc(N(c6ccc(OC)cc6)c6ccc(-c7ccc(N(c8ccc(OC)cc8)c8ccc(OC)cc8)cc7)cc6)ccc4n5-c4ccccc4)cc3)cc2)cc1` [ID522], for which, under setting [1], the efficiency is recorded as 4.4%, the “fill factor (FF)” value is on record as 69%, the “short-circuit current density ISC” value is given as 0.83 mA/cm^2 and the “terminal voltage VOC with an open circuit” value (“terminal voltage VOC” for short) is listed as 0.76 V. In addition, for the setting “0.1 sun, dye D205, TiO2 3.2 μm”, the efficiency was 2.7%, the “fill factor (FF)” value was 64%, the “short-circuit current density ISC” value is listed as 0.56 mA/cm^2 and the “terminal voltage VOC” value is given as 0.74 V. Under setting [2], the efficiency is 3.3%, the “fill factor (FF)” value is 45%, the “short-circuit current density ISC” value is given as 8.77 mA/cm^2 and the “terminal voltage VOC” value is reported as 0.84 V. Further, under “1 sun, dye D205, TiO2 3.2 μm”, the efficiency is on record as 2.8%, the “fill factor (FF)” value is 51%, the “short-circuit current density ISC” value is recorded as 6.57 mA/cm^2 and the “terminal voltage VOC” value was 0.84 V.
Regarding `COc1ccc(N(c2ccc(OC)cc2)c2ccc3c(c2)C(C)(C)c2cc(N(c4ccc(OC)cc4)c4ccc(-c5ccc(N(c6ccc(OC)cc6)c6ccc7c(c6)C(C)(C)c6cc(N(c8ccc(OC)cc8)c8ccc(OC)cc8)ccc6-7)cc5)cc4)ccc2-3)cc1` [ID518], where the note is “0.1 sun, dye D205, TiO2 3.2 μm”, the efficiency is 3.8%, the “fill factor (FF)” value is listed as 63%, the “short-circuit current density ISC” value is 0.81 mA/cm^2 and the “terminal voltage VOC” value is 0.74 V. Where the note is “1 sun, dye D205, TiO2 3.2 μm”, the efficiency is reported as 2.3%, the “fill factor (FF)” value is 33%, the “short-circuit current density ISC” value is on record as 8.57 mA/cm^2 and the “terminal voltage VOC” value is recorded as 0.82 V.
As for `COc1ccc(N(c2ccc(OC)cc2)c2ccc(-c3ccc(N(c4ccc(OC)cc4)c4ccc5c(c4)C(C)(C)c4cc(N(c6ccc(OC)cc6)c6ccc(-c7ccc(N(c8ccc(OC)cc8)c8ccc(OC)cc8)cc7)cc6)ccc4-5)cc3)cc2)cc1` [ID447], under setting [3], the efficiency is on record as 3.8%, the “fill factor (FF)” value is reported as 56%, the “short-circuit current density ISC” value is on record as 0.91 mA/cm^2 and the “terminal voltage VOC” value was 0.72 V. In addition, under setting [4], the efficiency is on record as 1.8%, the “fill factor (FF)” value was 33%, the “short-circuit current density ISC” value is recorded as 6.95 mA/cm^2 and the “terminal voltage VOC” value is 0.78 V.
For `COc1ccc(N(c2ccc(-c3ccc(N(c4ccc(OC)cc4)c4ccc(-c5ccc(N(c6ccc(OC)cc6)c6ccc7c(c6)C(C)(C)c6ccccc6-7)cc5)cc4)cc3)cc2)c2ccc(-c3ccc(N(c4ccc(OC)cc4)c4ccc5c(c4)C(C)(C)c4ccccc4-5)cc3)cc2)cc1` [ID453], under setting [3], the efficiency is listed as 4.5%, the “fill factor (FF)” value is 61%, the “short-circuit current density ISC” value was 0.87 mA/cm^2 and the “terminal voltage VOC” value is on record as 0.84 V. Under setting [4], the efficiency was 2.3%, the “fill factor (FF)” value is on record as 34%, the “short-circuit current density ISC” value was 7.75 mA/cm^2 and the “terminal voltage VOC” value is 0.90 V.
For the compound `COc1ccc(N(c2ccc(OC)cc2)c2ccc3c(c2)C2(c4cc(N(c5ccc(OC)cc5)c5ccc(OC)cc5)ccc4-3)c3cc(N(c4ccc(OC)cc4)c4ccc(OC)cc4)ccc3-c3ccc(N(c4ccc(OC)cc4)c4ccc(OC)cc4)cc32)cc1` [spiro-MeOTAD, 2,2′,7,7′-tetrakis(N,N-di-p-methoxyphenyl-amine)-9,9′-spirobifluorene, reference compound], the efficiency is listed as 5.6% under setting [3]; 4.7% under setting [1]; 4.7% (0.1 sun, dye D205, TiO2 3.2 μm); 4.9% under setting [5]; 1.2% under setting [6]; 2.7% under setting [7]. The efficiency by setting is: under setting [8], 1.0%; under setting [4], 4.0%; under setting [2], 3.7%; (1 sun, dye D205, TiO2 3.2 μm) 2.9%; under setting [9], 3.9%; under setting [10], 0.9%. The efficiency is 2.9% under setting [11] and 1.5% under setting [12]. For the same compound, the “fill factor (FF)” value runs as follows: under setting [3], 69%; under setting [1], 69%; (0.1 sun, dye D205, TiO2 3.2 μm) 68%; under setting [5], 68%; under setting [6], 55%; under setting [7], 70%. Moreover, the “fill factor (FF)” value runs as follows: under setting [8], 66%; under setting [4], 47%; under setting [2], 50%; (1 sun, dye D205, TiO2 3.2 μm) 37%; under setting [9], 49%; under setting [10], 54%. In addition, the “fill factor (FF)” value under setting [11] is 56% and the “fill factor (FF)” value under setting [12] is 57%. Further, the “short-circuit current density ISC” value is 1.10 mA/cm^2 under setting [3]; 0.92 mA/cm^2 under setting [1]; 0.95 mA/cm^2 (0.1 sun, dye D205, TiO2 3.2 μm); 0.96 mA/cm^2 under setting [5]; 0.37 mA/cm^2 under setting [6]; 0.52 mA/cm^2 under setting [7]. The “short-circuit current density ISC” value reads like this: under setting [8], 0.25 mA/cm^2; under setting [4], 10.60 mA/cm^2; under setting [2], 9.10 mA/cm^2; (1 sun, dye D205, TiO2 3.2 μm) 10.0 mA/cm^2; under setting [9], 9.32 mA/cm^2; under setting [10], 2.58 mA/cm^2. In addition, the “short-circuit current density ISC” value is listed as 6.87 mA/cm^2 under setting [11] and 3.97 mA/cm^2 under setting [12]. For the same compound, the “terminal voltage VOC” value under setting [3] was 0.74 V; the “terminal voltage VOC” value under setting [1] is 0.74 V; the “terminal voltage VOC” value (0.1 sun, dye D205, TiO2 3.2 μm) is 0.72 V; the “terminal voltage VOC” value under setting [5] was 0.76 V; the “terminal voltage VOC” value under setting [6] is 0.60 V; the “terminal voltage VOC” value under setting [7] was 0.74 V. In addition, the “terminal voltage VOC” value is 0.62 V under setting [8]; 0.80 V under setting [4]; 0.82 V under setting [2]; 0.78 V (1 sun, dye D205, TiO2 3.2 μm); 0.86 V under setting [9]; 0.68 V under setting [10]. Besides, the “terminal voltage VOC” value is, setting by setting: under setting [11], 0.76 V; under setting [12], 0.66 V.
